These results are taken from the supplement of paper PMC10373366.

For one assay, the system named is A2780. As to the kind of experiment: cell growth inhibition ratio vs untreated control (CCK8); higher = stronger inhibition of cell viability. The note with it: 10 µM; 48 h. How it is done: (§1)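 Natural product library (Topscience) screened at 10 µM final concentration for 48 h on ovarian cancer A2780 cells and patient-derived ovarian cancer cells (PDC) in 96-well plates; viability read by CCK8 and reported as inhibition ratio (%) relative to untreated control. Single-dose primary screen.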

Assay [1] has as its system patient-derived ovarian cancer cells (PDC). The assay is described as above. As to conditions: 10 µM; 48 h. Here is the method: as §1

Some of the results follow. Single values are uncertain, as repeats are few or missing.

Regarding `CC(C)=CCC[C@](C)(O[C@@H]1O[C@H](CO[C@@H]2OC[C@H](O)[C@H](O)[C@H]2O)[C@@H](O)[C@H](O)[C@H]1O)[C@H]1CC[C@]2(C)[C@@H]1[C@H](O)C[C@@H]1[C@@]3(C)CC[C@H](O[C@@H]4O[C@H](CO)[C@@H](O)[C@H](O)[C@H]4O[C@@H]4O[C@H](CO)[C@@H](O)[C@H](O)[C@H]4O)C(C)(C)[C@@H]3CC[C@]12C` [Ginsenoside Rb2], the “cell growth inhibition ratio” value in the assay with A2780 was 8.8%; in assay [1], -23.3%.
As to `O=c1c(O)c(-c2cc(O)c(O)c(O)c2)oc2cc(O)cc(O)c12` [Myricetin], the “cell growth inhibition ratio” value with A2780 is 19.4%; in assay [1], 8.71%.
Turning to `COc1ccc(CCc2cc(OC)c(OC)c(OC)c2)cc1O` [Erianin], the “cell growth inhibition ratio” value came to 88% in the assay on A2780 and 25.6% in assay [1].
Turning to `OC[C@H]1OC(O)[C@@H](O)[C@@H](O)[C@@H]1O` (stereo partly drawn) [Mannose], the figures for the “cell growth inhibition ratio” value (in the assay on A2780; in assay [1]) were 12.2% and 4.47%, respectively.
As to `O=c1ccc2cc3ccoc3cc2o1` [Psoralen], the “cell growth inhibition ratio” value is 0.767% with A2780 and -9.65% in assay [1].
For `NC(=O)NC1NC(=O)NC1=O` (stereo not drawn) [Allantoin] the same measures were 5.48% and -7.36%.
For the compound `CC(=O)[C@H]1CC[C@H]2[C@@H]3CCC4=CC(=O)CC[C@]4(C)[C@H]3CC[C@]12C` [Progesterone], the “cell growth inhibition ratio” value in the assay on A2780 came to 34.2%; in assay [1] it was 23.5%.
Take `C=C(C)[C@H]1CC=C(C)C(=O)C1` [(S)-(+)-Carvone]: the “cell growth inhibition ratio” value in the assay on A2780 is 16.8%; in assay [1], 16.1%.
As to `CCCN1C[C@H](C)[C@@H](O)[C@](C)(O)[C@@H](CC)OC(=O)[C@H](C)[C@@H](O[C@H]2C[C@@](C)(OC)[C@@H](O)[C@H](C)O2)[C@H](C)[C@@H](O[C@@H]2O[C@H](C)C[C@H](N(C)C)[C@H]2O)[C@](C)(O)C[C@H]1C` [Gamithromycin], the results for the “cell growth inhibition ratio” value (in the assay on A2780; in assay [1]) were 1.22% and 2.09%, respectively.
For `C=C(NC(=O)C(=C)NC(=O)c1csc(C2=N[C@@H]3c4csc(n4)[C@H]4NC(=O)c5csc(n5)[C@H]([C@](C)(O)[C@@H](C)O)NC(=O)[C@H]5CSC(=N5)/C(=C/C)NC(=O)[C@H]([C@@H](C)O)NC(=O)c5csc(n5)[C@]3(CC2)NC(=O)[C@H](C)NC(=O)C(=C)NC(=O)[C@H](C)NC(=O)[C@H]([C@@H](C)CC)N[C@@H]2C=Cc3c([C@H](C)O)cc(nc3[C@H]2O)C(=O)O[C@@H]4C)n1)C(N)=O` [Thiostrepton] the same measures were 5.5% and -4.65%.
Consider `CCNC(=O)CC[C@H](N)C(=O)O` [L-Theanine], for which the “cell growth inhibition ratio” value in the assay on A2780 was 8.82%; in assay [1] it was -6.08%.
As for `NCCc1c[nH]cn1` [Histamine], the entries for the “cell growth inhibition ratio” value (with A2780; in assay [1]) were 25% and -1.21%, respectively.
For `O=C1CCC[C@@H]2[C@H]3CCC[N+]4([O-])CCC[C@@H](CN12)[C@@H]34` (stereo partly drawn) [Oxymatrine] the same measures were 0.486% and -19.5%.
Take `C=CC[C@@H]1/C=C(\C)C[C@H](C)C[C@H](OC)[C@H]2O[C@@](O)(C(=O)C(=O)N3CCCC[C@H]3C(=O)O[C@H](/C(C)=C/[C@@H]3CC[C@@H](O)[C@H](OC)C3)[C@H](C)[C@@H](O)CC1=O)[C@H](C)C[C@@H]2OC` [Tacrolimus (FK506)]: the “cell growth inhibition ratio” value in the assay on A2780 is -5.93%; in assay [1], -8.97%.
Turning to `NCCS(=O)(=O)O` [Taurine], the “cell growth inhibition ratio” value in the assay with A2780 is 5.99%; in assay [1], -10.8%.
As for `COc1cc2c(c(OC)c1OC)-c1c(cc(OC)c(OC)c1OC)C[C@](C)(O)[C@@H](C)C2` [Schisandrin], the “cell growth inhibition ratio” value in the assay with A2780 came out at 6.19%; in assay [1] it was 8.6%.
With `CC1(C)C=Cc2c(ccc3c2OC[C@@H](c2ccc(O)cc2O)C3)O1` [Glabridin], the results for the “cell growth inhibition ratio” value (in the assay on A2780; in assay [1]) were 2.6% and -1.68%, respectively.
With `NC(=O)NCCC[C@H](N)C(=O)O` [Citrulline], the figures for the “cell growth inhibition ratio” value (in the assay on A2780; in assay [1]) were 5.98% and -7.92%, respectively.
Consider `C[C@H](CCC(=O)NCC(=O)O)[C@H]1CC[C@H]2[C@@H]3[C@H](O)C[C@@H]4C[C@H](O)CC[C@]4(C)[C@H]3C[C@H](O)[C@]12C` [Glycocholic acid], for which the “cell growth inhibition ratio” value with A2780 was 15.5%; in assay [1], -9.21%.
On the same counts, the results for `O=c1c(-c2ccc(O)cc2)coc2cc(O[C@@H]3O[C@H](CO)[C@@H](O)[C@H](O)[C@H]3O)cc(O)c12` [Genistin] are 33.8% and -10.7%.
On to `COc1ccc(CCC(=O)c2c(O)cc(O[C@@H]3O[C@H](CO)[C@@H](O)[C@H](O)[C@H]3O[C@@H]3O[C@@H](C)[C@H](O)[C@@H](O)[C@H]3O)cc2O)cc1O` [Neohesperidin Dihydrochalcone (Nhdc)], for which the “cell growth inhibition ratio” value is 9.23% with A2780 and -7.74% in assay [1].
Regarding `O=C(O)[C@H]1O[C@@H](Oc2cc3oc(-c4ccccc4)cc(=O)c3c(O)c2O)[C@H](O)[C@@H](O)[C@@H]1O` [Baicalin], the “cell growth inhibition ratio” value with A2780 is 11.7%; in assay [1], -5.71%.
For `O=c1ccn([C@@H]2O[C@H](CO)[C@@H](O)[C@H]2O)c(=O)[nH]1` [Uridine], the “cell growth inhibition ratio” value in the assay with A2780 is -2.38%; in assay [1], -10.7%.
Turning to `COC(=O)c1ccc(O)cc1` [Methyl 4-hydroxybenzoate], the “cell growth inhibition ratio” value in the assay on A2780 is 16.4%; in assay [1], -6.76%.
For the compound `CNC[C@@H](O)c1ccc(O)c(O)c1` [L-Adrenaline], the “cell growth inhibition ratio” value with A2780 is -2.33%; in assay [1] it was 11.4%.
`OC[C@H]1O[C@@H](O[C@@H]2[C@@H](CO)OC(O)(CO)[C@H]2O)[C@H](O)[C@@H](O)[C@H]1O` (mixture of isomers) [Lactulose]: the results for the “cell growth inhibition ratio” value (with A2780; in assay [1]) were 5.94% and -2.81%, respectively.
As to `O=C(OC[C@H]1O[C@@H](OC(=O)c2cc(O)c(O)c(OC(=O)c3cc(O)c(O)c(O)c3)c2)[C@H](OC(=O)c2cc(O)c(O)c(OC(=O)c3cc(O)c(O)c(O)c3)c2)[C@@H](OC(=O)c2cc(O)c(O)c(OC(=O)c3cc(O)c(O)c(O)c3)c2)[C@@H]1OC(=O)c1cc(O)c(O)c(OC(=O)c2cc(O)c(O)c(O)c2)c1)c1cc(O)c(O)c(OC(=O)c2cc(O)c(O)c(O)c2)c1` [Glycerite], the “cell growth inhibition ratio” value in the assay with A2780 was 8.22%; in assay [1] it was -6.41%.
Take `O=c1ccc2ccc(O)cc2o1` [7-Hydroxycoumarin]: the “cell growth inhibition ratio” value in the assay on A2780 is 1.86%; in assay [1] it was -9.36%.
As to `O=C(O)C(O)Cc1ccc(O)c(O)c1` (stereo not drawn) [Sodium Danshensu], the results for the “cell growth inhibition ratio” value (in the assay with A2780; in assay [1]) were 6.27% and -26.8%, respectively.
